The list shows a part of the results.
The sequences below were run against T1, OsSMF1 (Oryza sativa, UniProt Q6ZLB0 1-436) (assay: protein-binding microarray (RPBM); PBS, 2% BSA, 51.3 ng/ul salmon testes DNA, 50 uM zinc acetate, 200 nM TF, 25 C, 1 h; high values mean tight binding). Conditions: protein: recombinant; tags: N-terminal polyhistidine and DsRed monomer fusion (pET32a); chain copies: 2; label: CyDye5-dUTP incorporated in the synthesized complementary strand; 3' TTTTT single-stranded linker to array surface; dsDNA, one strand shown.
T1 sequence: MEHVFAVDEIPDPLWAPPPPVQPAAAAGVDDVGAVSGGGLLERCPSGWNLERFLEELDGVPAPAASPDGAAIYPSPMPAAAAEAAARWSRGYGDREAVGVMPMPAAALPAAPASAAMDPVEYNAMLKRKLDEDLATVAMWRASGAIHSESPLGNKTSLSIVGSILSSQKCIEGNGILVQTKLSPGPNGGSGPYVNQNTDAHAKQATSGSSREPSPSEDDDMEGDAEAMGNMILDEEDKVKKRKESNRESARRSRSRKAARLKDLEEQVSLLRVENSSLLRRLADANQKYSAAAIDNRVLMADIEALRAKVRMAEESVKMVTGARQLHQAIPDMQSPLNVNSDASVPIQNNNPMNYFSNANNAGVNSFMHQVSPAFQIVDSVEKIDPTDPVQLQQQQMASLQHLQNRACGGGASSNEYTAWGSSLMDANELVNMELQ
Outline: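 Transcription factors were made in E. coli BL21-CodonPlus as N-terminal fusions to a polyhistidine tag and DsRed, then purified on Ni–NTA. After primer extension with Cy5-dUTP and blocking with 2% BSA, a custom Agilent array was exposed for 1 h at 25 °C to 200 nM protein in PBS, 2% BSA, salmon testes DNA and 50 µM zinc acetate. Washed arrays were scanned on an Axon 4000B, and the binding signal is per-feature fluorescence intensity in arbitrary units.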
In the case of “CAACTCGCGAGCCCGTCACGTCACGCTTCGCACCCACCAGCGGAGTCACCTAGTGCAG”, the binding signal is reported as 8080 fluorescence intensity (a.u.).
With “GGAATGTGAGGGGATCCACGTCACACAAGTATATATATTACGGAGTCACCTAGTGCAG” the binding signal was 10600 fluorescence intensity (a.u.).
“GGATTGGCGGCGATGATGGCTCCTTCAAATCCGCTTCCTCCGGAGTCACCTAGTGCAG” was tested, and the binding signal was 7430 fluorescence intensity (a.u.).
In the case of “GGGAGGGAGCCAGAGCGGCGGGCGTGGGGTTGGAGGAGGGCGGAGTCACCTAGTGCAG”, the binding signal is reported as 4200 fluorescence intensity (a.u.).
In the case of “AGAGAGTAGGCTGACCTGGACAAGCTGACACGTGAGGCCCCGGAGTCACCTAGTGCAG”, the binding signal is reported as 11400 fluorescence intensity (a.u.).
“TGACCATTGGTCATGGGGTTGACGAACTGACACGCAGCAACGGAGTCACCTAGTGCAG” was tested, and the binding signal was 3320 fluorescence intensity (a.u.).
With “TACTACACGTACTCCACGTATATACTACGGGGAAAGAAGACGGAGTCACCTAGTGCAG” the binding signal was 4500 fluorescence intensity (a.u.).
For “CCTCCTCCCATGGCTCCACTGGATTCCGGCGGCGTCACCGCGGAGTCACCTAGTGCAG”, the binding signal was 4550 fluorescence intensity (a.u.).
For “ACGGCGACGTCGAGCGGGTTCTGCGGAACGTGGCGCAATGCGGAGTCACCTAGTGCAG”, the binding signal was 3570 fluorescence intensity (a.u.).
“TTTCGTGGAGATCGCTCGTGTCCTCCGCCGCGCAAGGCGCCGGAGTCACCTAGTGCAG” was tested, and the binding signal was 3590 fluorescence intensity (a.u.).
For “AGACAATCCTTTTGATGCTAGTGATGACGAGGATACCGAACGGAGTCACCTAGTGCAG”, the binding signal was 4100 fluorescence intensity (a.u.).
“CGTCCTCAACCGTGACGCCGCCGCGCGCCTCACCATCTCGCGGAGTCACCTAGTGCAG” was tested, and the binding signal was 4920 fluorescence intensity (a.u.).
In the case of “CAGCCGCATCCTCCACCGTCCACGCCACGTCGGGGCTCGTCGGAGTCACCTAGTGCAG”, the binding signal is reported as 8720 fluorescence intensity (a.u.).
“TGGCTTATGATTATGACCTGGAAGTATAACTGTTTCTGGTCGGAGTCACCTAGTGCAG” was tested, and the binding signal was 3760 fluorescence intensity (a.u.).
In the case of “TCCTCTCAATCCGCACCGCCACGCCATACCTCCTTCCACTCGGAGTCACCTAGTGCAG”, the binding signal is reported as 5060 fluorescence intensity (a.u.).
In the case of “CGCGCCATCGGCACGCTGGGCCAACACGGCACGGTGGACCCGGAGTCACCTAGTGCAG”, the binding signal is reported as 3820 fluorescence intensity (a.u.).
For “CTGACATACGCTGTCACTGACATGCGGGACCCCTGGTTGACGGAGTCACCTAGTGCAG”, the binding signal was 3770 fluorescence intensity (a.u.).
With “ATTCACTTTCTTGATTACGTAGAAGCTTCAGTGTCTATTCCGGAGTCACCTAGTGCAG” the binding signal was 3810 fluorescence intensity (a.u.).
With “TGTGTTGAAAAGATAAACTAATAGTAGTGATATTACTCGACGGAGTCACCTAGTGCAG” the binding signal was 3160 fluorescence intensity (a.u.).
For “AGCCAACACCGTCAGGTGGGCCCCGCGTACGGGCCCACCACGGAGTCACCTAGTGCAG”, the binding signal was 3460 fluorescence intensity (a.u.).
For “CACTGTAGTAGTGAGCCGCTTTGATGAAGTGGCGAAGTGGCGGAGTCACCTAGTGCAG”, the binding signal was 3280 fluorescence intensity (a.u.).
In the case of “GACGTACCTTACTTCAAGACTTGAAGTGGCCACGCAGTGGCGGAGTCACCTAGTGCAG”, the binding signal is reported as 3400 fluorescence intensity (a.u.).
In the case of “TTGGAAGGTATGTGTGGCTGCTTCTTCCTAGCAATTGGATCGGAGTCACCTAGTGCAG”, the binding signal is reported as 3250 fluorescence intensity (a.u.).

Source: article PMC7819943, “Rice protein-binding microarrays: a tool to detect cis-acting elements near promoter regions in rice”
